In PubChem BioAssay AID1487 (National Center for Advancing Translational Sciences (NCATS), 2009):
The list shows a part of the results. Shown are side measurements of this screen, not its main read-out; they come without a call. Most of these compounds were active or inconclusive in the main read-out, so they are no random draw. The note in brackets gives the kind of curve behind each potency; many fits are weak.

Assay: qHTS Assay for Modulators of Lamin A Splicing
Settings: HeLa LMNA splicing GFP/RFP minigene ratio, 48 h
Source text: NCGC Assay Overview: Hutchinson-Gilford Progeria Syndrome (HGPS) is a pediatric premature aging disease caused by a spontaneous mutation in the lamin A/C (LMNA) gene. The mutation activates a cryptic splice site in the LMNA pre-mRNA which results in production of a pre-lamin A protein that cannot be processed properly. The mutant protein accumulates in the nucleus and negatively affects numerous cellular functions. Correction of the splicing defect in HGPS patient cells using a targeted oligonucleotide (exo11) leads to reversal of the cellular disease phenotypes. To identify small molecule modulators of aberrant LMNA splicing, a homogenous assay was constructed in HeLa cells that used a GFP containing minigene to report on correction of aberrant splicing in lamin A and a RFP (DsRed2) to report on cell viability, uniformity and nonspecific effects on the assay signal. This assay was adapted to laser-scanning microplate cytometry (Acumen, TTP Labtech) where miniaturization of the assay to a 1,536-well plate format was possible. References: Bowen, W. P.; Wylie, P. G. Application of Laser-Scanning Fluorescence Microplate Cytometry in High Content Screening. Assay Drug Dev Technol 2006;4:209-221. Scaffidi P, Misteli T. Reversal of the cellular phenotype in the premature aging disease Hutchinson-Gilford progeria syndrome. Nat.
NCGC Assay Protocol Summary: Reagents/Controls: Stable clones expressing DsRed2 and lamin A-EGFP were generated by Cell and Molecular Technologies in S3 HeLa cells. HeLa cells were prepared for the assay when they were 70-90% confluent. The cells were counted and resuspended in Opti-MEM I (no phenol red; Gibco), 2% FBS, 1% penicillin/ streptomycin (Gibco) at concentration of 120 cells/uL concentration. The suspension was passed through a Falcon basket filter with pore size 40um (Beckton Dickson). Control titrations: column […] 1536-well plate contained a sixteen point titration (1:2 dilutions) in duplicate of ancitabine (Sigma: A8598) beginning at 40 uM final concentration. Column 2 contained a sixteen point titration (1:2 dilutions) of cycloheximide beginning at 1.4 mM final concentration. Column 3 contained ancitabine at 40 uM and column 4 contained was the vehicle control (0.5% DMSO final concentration). Assay Steps: 5 uL of HeLa cells were plated in Aurora LoBase black clear bottom (cyclic-olefin polymer) 1536-well plates at a final density of 600 cells/well. Controls and library compounds were added with a 1536-well pin array using the Kalypsys pin-tool. The plates were then incubated for 48 hrs in a cell-culture incubator (37 °C; 5% CO2, 98% humidity). Following incubation the plates were read on the Acumen Explorer using the 488 nm laser. Data was collected on objects between 10 and 100 um in size. Cell objects were defined by a 15 um width x 10 um depth filter. The ratio of the total object intensity in PMT1 (500-530 nm emission; GFP) over PMT3 (575-640 nm emission; RFP) was calculated for analysis. Keywords: NIH Roadmap, MLSCN, MLI, MLSMR, qHTS, NCGC, lamin A, Progeria, RNA splicing.

[1] = measured here: GFP splicing reporter channel
[2] = measured here: RFP viability control channel

COc1cccc(/C=C(/C(=O)OCC(=O)NC2CCCC(C)C2C)c2ccccc2)c1 (stereo not drawn)
AC50 [1]: 8.91 µM [rising, partial curve] | AC50 [2]: 12.6 µM [rising, partial curve]

CCCCOc1ccc(C(=O)OCC(=O)Nc2cc(C)c(C)cc2[N+](=O)[O-])cc1
AC50 [1]: 7.08 µM [falling, full curve, poor fit] | AC50 [2]: 7.94 µM [falling, partial curve, poor fit]

Cc1c(NC(=O)c2cccnc2)c(=O)n(-c2ccccc2)n1C
AC50 [1]: 0.00355 µM [falling, full curve] | AC50 [2]: 0.00501 µM [falling, full curve]

Cc1cc2nnc(SCC(=O)N3CCCCC3)n2c(N)n1
AC50 [2]: 3.98 µM [falling, partial curve, poor fit]

CCc1ccccc1N=C1S/C(=C/c2ccccc2OCC(=O)N2CCOCC2)C(=O)N1C
AC50 [2]: 31.6 µM [rising, single point]

Cc1ccc(S(=O)(=O)Nc2ccc3nc(N)sc3c2)cc1
AC50 [1]: 12.6 µM [rising, single point] | AC50 [2]: 15.8 µM [rising, partial curve]

CC(=O)Oc1cc2c(C(=O)NCCN3CCOCC3)c(C)oc2c2ccccc12
AC50 [1]: 15.8 µM [rising, single point] | AC50 [2]: 20 µM [rising, single point]

CC/S(=N\S(=O)(=O)c1ccc(C)cc1)c1ccccc1 (stereo not drawn)
AC50 [1]: 0.631 µM [falling, full curve, poor fit] | AC50 [2]: 0.562 µM [falling, full curve]

CCN(c1ccc2c(c1)OCO2)S(=O)(=O)c1cc(Br)cc2c1N(C(=O)C1CC1)CC2
AC50 [2]: 14.1 µM [rising, single point]

Cc1nc(Nc2ccc(Cl)cc2Cl)sc1C(=O)Nc1ccccc1
AC50 [1]: 20 µM [rising, partial curve, poor fit] | AC50 [2]: 17.8 µM [rising, partial curve]

CNC(=O)C1C(=S)NC(N)=C(C#N)C1c1ccccc1 (stereo not drawn)
AC50 [1]: 35.5 µM [falling, single point] | AC50 [2]: 22.4 µM [falling, single point]

CCOC(=O)c1cnc(SCC(=O)N2CCOCC2)nc1N
AC50 [2]: 22.4 µM [falling, single point]

COc1ccc(-n2c(O)c(/C=N/NS(=O)(=O)c3ccc(C)c([N+](=O)[O-])c3)c3ccccc3c2=O)cc1OC
AC50 [1]: 15.8 µM [rising, partial curve] | AC50 [2]: 12.6 µM [rising, partial curve]

COC(CNC(=O)c1cc(C(=O)c2c(-c3c(Cl)cccc3Cl)noc2C)c[nH]1)OC
AC50 [1]: 35.5 µM [rising, single point] | AC50 [2]: 35.5 µM [rising, single point]

O=c1c2ccccc2nc2sc3ccccc3n12
AC50 [2]: 35.5 µM [rising, single point]

O=C(CSc1nnc(-c2cccs2)n1Cc1ccccc1)N1CCc2ccccc2C1
AC50 [1]: 35.5 µM [rising, single point] | AC50 [2]: 35.5 µM [rising, single point]

Cc1ccc(Cn2ccc(NC(=O)c3noc4c3CCCCC4)n2)cc1
AC50 [1]: 11.2 µM [rising, partial curve] | AC50 [2]: 28.2 µM [rising, single point]

COc1cc(CNCCc2ccccc2F)ccc1OCC(=O)N1CCCCC1
AC50 [1]: 0.0224 µM [rising, full curve, poor fit]

CN(c1ccccc1)S(=O)(=O)c1cc(C(=O)OCC(N)=O)ccc1Cl
AC50 [1]: 4.47 µM [falling, partial curve] | AC50 [2]: 2.24 µM [falling, single point]

CCC1CN(C(=O)N2CCC(C(=O)NCc3cccc(C)c3)CC2)c2ccccc2O1 (stereo not drawn)
AC50 [1]: 11.2 µM [rising, partial curve, poor fit]

O=C(O)CCCCCNS(=O)(=O)c1ccc2c(c1)OCCO2
AC50 [1]: 2.24 µM [rising, partial curve, poor fit]

CCOc1ccc(S(=O)(=O)NCc2csc(C)n2)cc1
AC50 [2]: 31.6 µM [rising, single point]

CCNC(=S)N1CCc2cc(OC)c(OC)cc2C1COc1ccc(F)cc1 (stereo not drawn)
AC50 [1]: 20 µM [falling, partial curve]

O=C(O)[C@@H](S)[C@H](S)C(=O)O
AC50 [1]: 8.91 µM [rising, partial curve, poor fit] | AC50 [2]: 35.5 µM [rising, single point]

Cc1sc2nc3c(C(=O)N4CCCC4)cc(C(=O)c4ccccc4O)cn3c(=O)c2c1C
AC50 [1]: 17.8 µM [rising, single point]

Cc1nc(N2CCN(Cc3ccccc3)CC2)nc2c1C(=O)CC(c1ccco1)C2 (stereo not drawn)
AC50 [2]: 31.6 µM [rising, single point]

COc1ccc(OC)c(NC(=O)/C=C/c2ccccc2[N+](=O)[O-])c1
AC50 [1]: 0.126 µM [rising, full curve, poor fit] | AC50 [2]: 5.01 µM [rising, full curve, poor fit]

COc1ccc(NS(=O)(=O)c2cccc(NC(=O)CCS(=O)(=O)c3ccccc3)c2)cc1
AC50 [1]: 12.6 µM [rising, single point] | AC50 [2]: 25.1 µM [rising, partial curve]

S=C(Nc1ccc2c(c1)OCO2)N1CCCC1
AC50 [1]: 0.501 µM [rising, full curve, poor fit] | AC50 [2]: 0.794 µM [rising, full curve, poor fit]

CCc1ccc(CNC(=O)c2ccc(NC(=O)N3CCCCc4ccccc43)cc2)cc1
AC50 [2]: 0.00447 µM [falling, full curve, poor fit]

O=C(N/N=C/c1ccccc1O)C1(O)c2ccccc2-c2ccccc21
AC50 [2]: 11.2 µM [rising, partial curve, poor fit]

COc1cc(Cl)cc(/C=C/c2ccc3ccccc3n2)c1OC(C)=O
AC50 [1]: 35.5 µM [falling, single point]

CCc1ccc(-c2nn(CC(=O)Nc3ccccc3)c3c2cnc2ccc(F)cc23)cc1
AC50 [1]: 0.251 µM [falling, full curve, poor fit] | AC50 [2]: 5.01 µM [falling, full curve, poor fit]

CC(=O)NCc1c(I)c(NC(C)=O)c(I)c(C(=O)O)c1I
AC50 [1]: 10 µM [falling, partial curve, poor fit] | AC50 [2]: 0.0316 µM [falling, full curve, poor fit]

COc1ccc(-n2c(N)c(C(=O)NCc3ccco3)c3nc4ccccc4nc32)cc1OC
AC50 [2]: 11.2 µM [rising, partial curve, poor fit]

CNC(=O)c1ccccc1NC(=O)c1cccc(S(=O)(=O)N2CCC(C)CC2)c1
AC50 [2]: 14.1 µM [rising, single point]

CCO/N=C(/C)c1c(O)cc(C(C)(C)C)n(-c2ccccc2)c1=O
AC50 [2]: 5.62 µM [rising, partial curve]

O=C(Cn1c(=O)c2cccn2c2ccccc21)Nc1cc(F)ccc1F
AC50 [1]: 0.0282 µM [rising, full curve, poor fit] | AC50 [2]: 5.01 µM [rising, partial curve]

Cc1cccc(NC(=O)CSc2ncnc3nc[nH]c23)c1C
AC50 [1]: 0.02 µM [rising, full curve, poor fit]

COC(=O)C1=C(C)NC(=S)NC1c1ccc(-c2cccc(Cl)c2)o1 (stereo not drawn)
AC50 [2]: 5.01 µM [rising, partial curve, poor fit]

COc1ccc(S(=O)(=O)NCC2CCC(C(=O)NCCC(C)C)CC2)cc1 (stereo not drawn)
AC50 [1]: 35.5 µM [rising, single point]

Cn1c(C(=O)NCc2cccnc2)cc2sc(Cl)cc21
AC50 [1]: 20 µM [rising, single point] | AC50 [2]: 35.5 µM [rising, single point]

COc1cccc(/C=N/NC(=O)c2cc(-c3cccn3C)n[nH]2)c1O
AC50 [2]: 7.08 µM [rising, partial curve]

CCOC(=O)c1sc2ccc(S(=O)(=O)N3CCCCC3)cc2c1N
AC50 [1]: 11.2 µM [rising, single point]

Cc1ccc2ncnc(Nc3ccccc3)c2c1
AC50 [1]: 1.26 µM [falling, full curve, poor fit]

CC1(C)CC2CC(C)(CN2c2ncnc3ccccc23)C1 (stereo not drawn)
AC50 [1]: 15.8 µM [rising, partial curve] | AC50 [2]: 11.2 µM [rising, partial curve]

Cc1ccc(S(=O)(=O)CCC(=O)OCc2ccccc2)cc1
AC50 [2]: 0.0224 µM [rising, full curve, poor fit]

CCOc1ccc(NC(=O)c2ccc(F)c(S(=O)(=O)N(CC)Cc3ccccc3)c2)cc1
AC50 [1]: 1 µM [falling, partial curve]

O=C(C1CCC1)N1CCc2cc(S(=O)(=O)N3CCN(c4ccccn4)CC3)ccc21
AC50 [2]: 12.6 µM [rising, partial curve]

C1CCN(CCCNC2C3CC4CC(C3)CC2C4)C1 (stereo not drawn)
AC50 [1]: 3.55 µM [rising, single point] | AC50 [2]: 2.82 µM [rising, full curve, poor fit]

CCOc1ccc(CCNC(=O)c2sc3ncccc3c2-n2cccc2)cc1OCC
AC50 [1]: 7.94 µM [falling, partial curve]

O=C(CSc1nnc(CCc2ccccc2)n1-c1ccc(Cl)cc1)c1ccccc1
AC50 [2]: 28.2 µM [rising, single point]

COc1cc(CCC(=O)Nc2ccc(Br)c(C(F)(F)F)c2)cc(OC)c1OC
AC50 [2]: 35.5 µM [rising, single point]

O=C(OOC(=O)c1ccccc1)c1ccccc1
AC50 [1]: 0.02 µM [falling, full curve, poor fit] | AC50 [2]: 0.00631 µM [falling, full curve, poor fit]
